Measurements taken from article PMC6823460.
Results are given in words; binding and its absence hold for the method and conditions named. Binding seen in cells or lysates may run through a third protein. Binding can be weak; no strength is given.

Chains of the proteins cited; added tags and fusions are not shown. Lines headed by an entry give the natural chain unless they say otherwise; changes in a name come on top.
UniProt P15692: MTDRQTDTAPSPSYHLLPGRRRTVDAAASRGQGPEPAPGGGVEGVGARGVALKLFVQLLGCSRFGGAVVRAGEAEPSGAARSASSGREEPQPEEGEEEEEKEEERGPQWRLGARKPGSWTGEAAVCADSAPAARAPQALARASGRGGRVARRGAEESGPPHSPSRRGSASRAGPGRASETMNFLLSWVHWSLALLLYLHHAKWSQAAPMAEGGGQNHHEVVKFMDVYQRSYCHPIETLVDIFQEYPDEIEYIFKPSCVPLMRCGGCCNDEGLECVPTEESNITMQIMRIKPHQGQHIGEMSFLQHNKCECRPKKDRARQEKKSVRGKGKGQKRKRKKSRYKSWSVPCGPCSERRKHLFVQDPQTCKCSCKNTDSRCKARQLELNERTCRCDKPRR

Target: VEGFA, endogenous in human placental tissue (human (endogenous in placental tissue)) (UniProt P15692)
Assay: co-IP; human placental tissue lysate (1 mg protein); anti-VEGFA antibody overnight at 4 °C, protein A/G agarose; immunoblot with anti-calpain-6

- binding: binds
B1: calpain-6, endogenous in human placental tissue (protein, UniProt Q9Y6Q1 1-641)
chain: MGPPLKLFKNQKYQELKQECIKDSRLFCDPTFLPENDSLFYNRLLPGKVVWKRPQDICDDPHLIVGNISNHQLTQGRLGHKPMVSAFSCLAVQESHWTKTIPNHKEQEWDPQKTEKYAGIFHFRFWHFGEWTEVVIDDLLPTINGDLVFSFSTSMNEFWNALLEKAYAKLLGCYEALDGLTITDIIVDFTGTLAETVDMQKGRYTELVEEKYKLFGELYKTFTKGGLICCSIESPNQEEQEVETDWGLLKGHTYTMTDIRKIRLGERLVEVFSAEKVYMVRLRNPLGRQEWSGPWSEISEEWQQLTASDRKNLGLVMSDDGEFWMSLEDFCRNFHKLNVCRNVNNPIFGRKELESVLGCWTVDDDPLMNRSGGCYNNRDTFLQNPQYIFTVPEDGHKVIMSLQQKDLRTYRRMGRPDNYIIGFELFKVEMNRKFRLHHLYIQERAGTSTYIDTRTVFLSKYLKKGNYVLVPTMFQHGRTSEFLLRIFSEVPVQLRELTLDMPKMSCWNLARGYPKVVTQITVHSAEDLEKKYANETVNPYLVIKCGKEEVRSPVQKNTVHAIFDTQAIFYRRTTDIPIIVQVWNSRKFCDQFLGQVTLDADPSDCRDLKSLYLRKKGGPTAKVKQGHISFKVISSDDLTEL
